From paper doi:10.1101/2024.07.03.601947
These are yes or no findings as the source states them, for the method shown. In cells and extracts the contact can be indirect. Here binding means that the protein was enriched with, or labelled near, the bait; the list need not be complete.

Target: Flag-TurboID-Plk1 PBD WT (UniProt P53350)
Test: proximity labelling

INCENP (from UniProt Q9NQS7 1-918)
binding: binds
